Laboratory results: publication PMC5634478, “Usefulness of kidney slices for functional analysis of apical reabsorptive transporters” (Scientific Reports, 2017)

Tested on: Sglt1/2
Assay: Uptake of [14C]αMG by mice kidney slices
Type: in vitro ADME
Conditions: [14C]αMG 2.5 μM, pH 7.4, 37 °C, 1-20 min
Experimental: Uptake studies using mouse kidney slices were carried out as described in a previous report after slight modifications. The slices of whole kidneys were prepared with a microslicer (Zero 1; Dosaka EM, Kyoto, Japan), and the renal pelvis portion was removed. Prepared slices (0.3 mm thick) of whole kidneys from male mice were immediately put in ice-cold oxygenated transport buffer (130 mM NaCl, 4.8 mM KCl, 1.2 mM CaCl2, 1.2 mM MgSO4, 1.2 mM KH2PO4 and 25 mM HEPES, adjusted to pH 7.4). When uptake was conducted in Na^+-free condition, NaCl was replaced with N-methyl-D-glucamine (NMG) in transport buffer. Three or four slices from one mouse, weighing each slice 2 to 10 mg, were randomly selected and then pre-incubated in a 24-well plate with 1.0 ml of oxygenated transport buffer in each well at 37 °C for 5 min. After pre-incubation, the kidney slices were put into transport buffer containing radiolabeled substrates with or without inhibitors to initiate the uptake reaction. […] The apparent uptake of [^14C]inulin was evaluated in independent experiments (n = 3) to estimate the volume of water adhering to the kidney slices after an incubation. […] Viability of the isolated kidney slices was assessed as described in the supplemental file. […]

`CO[C@H]1O[C@H](CO)[C@@H](O)[C@H](O)[C@H]1O` [αMG, methyl-α-D-glucopyranoside] was tested, and the “uptake in the presence of Na+ versus absence of Na+” value was “significantly higher”.
